# Where a name gives a salt, the structure may show the parent alone. The list shows a part of the results. Many values rest on one well or one pass, so single values are uncertain.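 Test system: a mixed pool of 41 HAP1 clones in which 61 cancer-associated proteins carry fluorescent tags inserted into introns, and each clone is identified from its image pattern. Read-outs are compared with DMSO-treated control wells. The BRD4 degrader dBET6 served as the positive control.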
# Biological target: BRD4 (intron 10 mScarlet tag, HAP1) (UniProt O60885)
# Test: BRD4 median nuclear fluorescence intensity change vs DMSO (log2 fold change); higher = more BRD4 protein
# Details: 6 h
row,Compound,BRD4 median nuclear fluorescence intensity change (log2)
1,CC1(C)O[C@@H]2[C@@H](CO[C@@]3(COS(N)(=O)=O)OC(C)(C)O[C@@H]23)O1 [topiramate] (10 µM),0.0602
2,CC1=C(/C=C/C(C)=C\C=C\C(C)=C\C(=O)O)C(C)(C)CCC1 [alitretinoin] (20 µM),0.0795
3,CS(=O)(=O)CCNCc1ccc(-c2ccc3ncnc(Nc4ccc(OCc5cccc(F)c5)c(Cl)c4)c3c2)o1 [lapatinib] (20 µM),0.0502
4,CC(C)(C#N)c1cc(Cn2cncn2)cc(C(C)(C)C#N)c1 [anastrozole] (20 µM),0.0203
5,CO[C@@]12[C@H](COC(N)=O)C3=C(C(=O)C(C)=C(N)C3=O)N1C[C@@H]1N[C@@H]12 [mitomycin c] (10.00353425 µM),-0.105
6,N#C[C@@H]1C[C@@H]2C[C@@H]2N1C(=O)[C@@H](N)C12CC3CC(CC(O)(C3)C1)C2 [saxagliptin] (9.99933 µM),-0.0319
7,N#CC[C@H](C1CCCC1)n1cc(-c2ncnc3[nH]ccc23)cn1 [ruxolitinib] (20 µM),0.316
8,CCCCNc1cc(C(=O)O)cc(S(N)(=O)=O)c1Oc1ccccc1 [bumetanide] (10.00031521 µM),0.0188
9,COc1cc(C(=O)NS(=O)(=O)c2ccccc2C)ccc1Cc1cn(C)c2ccc(NC(=O)OC3CCCC3)cc12 [zafirlukast] (10.0009 µM),0.0638
10,CCCC(CCC)C(=O)O [valproic acid] (10 µM),0.0215
11,CCC(=C/[C@H](C)C/C=C/C(C)=C/[C@@H](C)C(=O)[C@@H](C)[C@H](O)[C@@H](C)C/C(C)=C/C(=O)O)/C=C/[C@@H]1OC(=O)C=C[C@@H]1C [leptomycin b] (0.01 µM),0.0108
12,C#Cc1cccc(Nc2ncnc3cc(OCCOC)c(OCCOC)cc23)c1 [erlotinib] (20 µM),0.00565
13,COC(=O)Nc1nc2cc(C(=O)c3ccccc3)ccc2[nH]1 [mebendazole] (9.99917 µM),0.0145
14,CC[C@]1(O)C[C@@H]2CN(CCc3c([nH]c4ccccc34)[C@@](C(=O)OC)(c3cc4c(cc3OC)N(C)[C@H]3[C@@](O)(C(N)=O)[C@H](O)[C@]5(CC)C=CCN6CC[C@]43[C@@H]65)C2)C1 [vindesine sulfate] (10 µM),0.025

# Sorted by SMILES length (smallest number first): part of the list above.
row,Compound,BRD4 median nuclear fluorescence intensity change (log2)
8,CCCCNc1cc(C(=O)O)cc(S(N)(=O)=O)c1Oc1ccccc1 [bumetanide] (10.00031521 µM),0.0188
7,N#CC[C@H](C1CCCC1)n1cc(-c2ncnc3[nH]ccc23)cn1 [ruxolitinib] (20 µM),0.316
3,CS(=O)(=O)CCNCc1ccc(-c2ccc3ncnc(Nc4ccc(OCc5cccc(F)c5)c(Cl)c4)c3c2)o1 [lapatinib] (20 µM),0.0502

# — the supplement of paper PMC11098740
